# In the supplement of paper PMC8728848:
# This is one part of the list.
# Experiments:
# Experiment in all cases: glycan array binding signal (z-score within array); higher = stronger binding
# Details in all cases: glycan notation: IUPAC condensed, linker removed
# [1] = molecular target: Fuc(a1-3)[Gal3S(b1-4)]GlcNAc
# In short: (§1)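 Arrays were curated from the Consortium for Functional Glycomics database, 3228 in total, and kept only where the protein sequence was available. Binding is expressed as a within-array Z-score. This score was averaged across arrays of the same protein sequence at different concentrations or buffers and across linkers, and negative values can be read as non-binding.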
# [2] = molecular target: Fuc(a1-3)[Gal3S(b1-4)]GlcNAc6S
# In short: as §1
# [3] = molecular target: Fuc(a1-3)[GalNAc(b1-4)]GlcNAc
# In short: as §1
# Fuc(a1-4)GlcNAc = molecular target: Fuc(a1-4)GlcNAc
# In short: as §1
# Fuc(b1-3)GlcNAc = molecular target: Fuc(b1-3)GlcNAc
# In short: as §1
# Gal(a1-2)Gal = molecular target: Gal(a1-2)Gal
# In short: as §1
# Gal(a1-3)Gal = molecular target: Gal(a1-3)Gal
# In short: as §1
# Gal(a1-3)Gal(b1-3)GlcNAc = molecular target: Gal(a1-3)Gal(b1-3)GlcNAc
# In short: as §1
# [4] = molecular target: Gal(a1-3)Gal(b1-3)GlcNAc(b1-2)Man(a1-3)[Gal(a1-3)Gal(b1-3)GlcNAc(b1-2)Man(a1-6)]Man(b1-4)GlcNAc(b1-4)GlcNAc
# In short: as §1
# [5] = molecular target: Gal(a1-3)Gal(b1-3)[Fuc(a1-4)]GlcNAc(b1-2)Man(a1-3)[Gal(a1-3)Gal(b1-3)[Fuc(a1-4)]GlcNAc(b1-2)Man(a1-6)]Man(b1-4)GlcNAc(b1-4)GlcNAc
# In short: as §1
# Gal(a1-3)Gal(b1-4)Glc = molecular target: Gal(a1-3)Gal(b1-4)Glc
# In short: as §1
# Gal(a1-3)Gal(b1-4)GlcNAc = molecular target: Gal(a1-3)Gal(b1-4)GlcNAc
# In short: as §1
# [6] = molecular target: Gal(a1-3)Gal(b1-4)GlcNAc(b1-3)GalNAc
# In short: as §1
# [7] = molecular target: Gal(a1-3)Gal(b1-4)[Fuc(a1-3)]GlcNAc
# In short: as §1
# [8] = molecular target: Gal(a1-3)Gal(b1-4)[Fuc(a1-3)]GlcNAc(b1-2)Man(a1-3)[Gal(a1-3)Gal(b1-4)[Fuc(a1-3)]GlcNAc(b1-2)Man(a1-6)]Man(b1-4)GlcNAc(b1-4)GlcNAc
# In short: as §1
# Gal(a1-3)GalNAc = molecular target: Gal(a1-3)GalNAc
# In short: as §1
# [9] = molecular target: Gal(a1-3)[Gal(a1-4)]Gal(b1-4)GlcNAc
# In short: as §1
# [10] = molecular target: Gal(a1-4)Gal(b1-3)GlcNAc(b1-2)Man(a1-3)[Gal(a1-4)Gal(b1-3)GlcNAc(b1-2)Man(a1-6)]Man(b1-4)GlcNAc(b1-4)GlcNAc
# In short: as §1
# Gal(a1-4)Gal(b1-4)Glc = molecular target: Gal(a1-4)Gal(b1-4)Glc
# In short: as §1
# Gal(a1-4)Gal(b1-4)GlcNAc = molecular target: Gal(a1-4)Gal(b1-4)GlcNAc
# In short: as §1
# [11] = molecular target: Gal(a1-4)Gal(b1-4)GlcNAc(b1-2)Man(a1-3)[Gal(a1-4)Gal(b1-4)GlcNAc(b1-2)Man(a1-6)]Man(b1-4)GlcNAc(b1-4)GlcNAc
# In short: as §1
# [12] = molecular target: Gal(a1-4)Gal(b1-4)GlcNAc(b1-3)Gal(b1-4)Glc
# In short: as §1
# Gal(a1-4)GlcNAc = molecular target: Gal(a1-4)GlcNAc
# In short: as §1
# Gal(a1-6)Glc = molecular target: Gal(a1-6)Glc
# In short: as §1
# Gal(b1-2)Gal = molecular target: Gal(b1-2)Gal
# In short: as §1
# Gal(b1-3)Gal = molecular target: Gal(b1-3)Gal
# In short: as §1
# Gal(b1-3)Gal(b1-4)GlcNAc = molecular target: Gal(b1-3)Gal(b1-4)GlcNAc
# In short: as §1
# [13] = molecular target: Gal(b1-3)Gal(b1-4)GlcNAc(b1-2)Man(a1-3)[Gal(b1-3)Gal(b1-4)GlcNAc(b1-2)Man(a1-6)]Man(b1-4)GlcNAc(b1-4)GlcNAc
# In short: as §1
# Gal(b1-3)GalNAc = molecular target: Gal(b1-3)GalNAc
# In short: as §1
# [14] = molecular target: Gal(b1-3)GalNAc(a1-3)[Fuc(a1-2)]Gal(b1-4)Glc
# In short: as §1
binder,measurement,setting,value
"Flo10 (Saccharomyces cerevisiae), P36170 (protein) MPVAARYIFLTGLFLLSVANVALGTTEACLPAGEKKNGMTINFYQYSLKDSSTYSNPSYMAYGYADAEKLGSVSGQTKLSIDYSIPCNGASDTCACSDDDATEYSASQVVPVKRGVKLCSDNTTLSSKTEKRENDDCDQGAAYWSSDLFGFYTTPTNVTVEMTGYFLPPKTGTYTFGFATVDDSAILSVGGNVAFECCKQEQPPITSTDFTINGIKPWNADAPTDIKGSTYMYAGYYYPIKIVYSNAVSWGTLPVSVVLPDGTEVNDDFEGYVFSFDDNATQAHCSVPNPAEHARTCVSSATSSWSSSEVCTECTETESTSYVTPYVTSSSWSSSEVCTECTETESTSTSTPYVTSSSSSSSEVCTECTETESTSYVTPYVSSSTAAANYTSSFSSSSEVCTECTETESTSTSTPYVTSSSWSSSEVCTECTETESTSYVTPYVSSSTAAANYTSSFSSSSEVCTECTETESTSTSTPYVTSSSSSSSEVCTECTETESTSYVTPYVSSSTAAANYTSSFSSSSEVCTECTETESTSTSTPYVTSSSWSSSEVCTECTETESTSYVTPYVSSSTAAANYTSSFSSSSEVCTECTETESTSTSTPYATSSTGTATSFTASTSNTMTSLVQTDTTVSFSLSSTVSEHTNAPTSSVESNASTFISSNKGSVKSYVTSSIHSITPMYPSNQTVTSSSVVSTPITSESSESSASVTILPSTITSEFKPSTMKTKVVSISSSPTNLITSYDTTSKDSTVGSSTSSVSLISSISLPSSYSASSEQIFHSSIVSSNGQALTSFSSTKVSSSESSESHRTSPTTSSESGIKSSGVEIESTSTSSFSFHETSTASTSVQISSQFVTPSSPISTVAPRSTGLNSQTESTNSSKETMSSENSASVMPSSSATSPKTGKVTSDETSSGFSRDRTTVYRMTSETPSTNEQTTLITVSSCESNSCSNTVSSAVVSTATTTINGITTEYTTWCPLSATELTTVSKLESEEKTTLITVTSCESGVCSETASPAIVSTATATVNDVVTVYSTWSPQATNKLAVSSDIENSASKASFVSEAAETKSISRNNNFVPTSGTTSIETHTTTTSNASENSDNVSASEAVSSKSVTNPVLISVSQQPRGTPASSMIGSSTASLEMSSYLGIANHLLTNSGISIFIASLLLAIV",glycan array binding signal (z-score),[1],-0.406
same,glycan array binding signal (z-score),[2],0.429
same,glycan array binding signal (z-score),[3],0.073
same,glycan array binding signal (z-score),Fuc(a1-4)GlcNAc,-0.586
same,glycan array binding signal (z-score),Fuc(b1-3)GlcNAc,-0.561
same,glycan array binding signal (z-score),Gal(a1-2)Gal,3.67
same,glycan array binding signal (z-score),Gal(a1-3)Gal,-0.002
same,glycan array binding signal (z-score),Gal(a1-3)Gal(b1-3)GlcNAc,-0.114
same,glycan array binding signal (z-score),[4],0.626
same,glycan array binding signal (z-score),[5],-0.055
same,glycan array binding signal (z-score),Gal(a1-3)Gal(b1-4)Glc,0.341
same,glycan array binding signal (z-score),Gal(a1-3)Gal(b1-4)GlcNAc,-0.627
same,glycan array binding signal (z-score),[6],-0.351
same,glycan array binding signal (z-score),[7],-0.169
same,glycan array binding signal (z-score),[8],-0.784
same,glycan array binding signal (z-score),Gal(a1-3)GalNAc,-0.515
same,glycan array binding signal (z-score),[9],0.048
same,glycan array binding signal (z-score),[10],0.202
same,glycan array binding signal (z-score),Gal(a1-4)Gal(b1-4)Glc,-0.634
same,glycan array binding signal (z-score),Gal(a1-4)Gal(b1-4)GlcNAc,-0.408
same,glycan array binding signal (z-score),[11],0.855
same,glycan array binding signal (z-score),[12],1.98
same,glycan array binding signal (z-score),Gal(a1-4)GlcNAc,-0.826
same,glycan array binding signal (z-score),Gal(a1-6)Glc,-0.443
same,glycan array binding signal (z-score),Gal(b1-2)Gal,-0.3
same,glycan array binding signal (z-score),Gal(b1-3)Gal,-0.137
same,glycan array binding signal (z-score),Gal(b1-3)Gal(b1-4)GlcNAc,-0.919
same,glycan array binding signal (z-score),[13],-0.326
same,glycan array binding signal (z-score),Gal(b1-3)GalNAc,-0.258
same,glycan array binding signal (z-score),[14],3.64
